Paper PMC12501026
These are yes or no findings as the source states them, for the method shown. Binding seen in cells or lysates may run through a third protein. Some binding calls cover weakened binding; strength is not graded here.

The chains behind the UniProt entries cited, without tags or fusion partners. Where a name states a change or a piece, a line headed by the entry shows the natural chain unless it says otherwise.
UniProt P16401: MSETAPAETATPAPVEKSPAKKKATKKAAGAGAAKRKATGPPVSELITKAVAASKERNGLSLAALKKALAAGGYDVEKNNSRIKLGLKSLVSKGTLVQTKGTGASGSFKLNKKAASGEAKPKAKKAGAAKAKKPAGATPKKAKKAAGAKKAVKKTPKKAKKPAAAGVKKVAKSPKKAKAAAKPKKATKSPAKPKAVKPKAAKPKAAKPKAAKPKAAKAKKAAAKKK
UniProt P25963: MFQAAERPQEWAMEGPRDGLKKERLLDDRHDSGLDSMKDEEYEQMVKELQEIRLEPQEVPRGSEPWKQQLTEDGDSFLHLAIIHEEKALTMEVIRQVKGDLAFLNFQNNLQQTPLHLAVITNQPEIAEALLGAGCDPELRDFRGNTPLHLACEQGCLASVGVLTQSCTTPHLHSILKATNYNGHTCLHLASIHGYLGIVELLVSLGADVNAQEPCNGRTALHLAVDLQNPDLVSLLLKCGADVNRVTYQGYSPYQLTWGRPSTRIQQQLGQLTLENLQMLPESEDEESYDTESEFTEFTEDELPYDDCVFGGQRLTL

Legend:
[1] = biological target: Flag-Histone H1.5 K67R (human) (UniProt P16401); experiment: co-IP; DB cells transfected with Flag-histone H1.5 or its K-to-R mutants, with chidamide; histone H1.5 enriched from RIPA lysate, western blot for IκBα
[2] = biological target: Flag-Histone H1.5 (human) (UniProt P16401); experiment: as above
[3] = biological target: Flag-Histone H1.5 K93R (human) (UniProt P16401); experiment: as above
[4] = biological target: Histone H1.5 (human (endogenous in DB)) (UniProt P16401); experiment: co-IP; immunoprecipitation of endogenous histone H1.5 from RIPA lysate (antibody and magnetic beads overnight at 4 °C, five washes), western blot for IκBα; cells with or without chidamide, or with siRNA against HDAC1, HDAC2, HDAC3 or HDAC10

- binding [1]: binds
- binding [2]: binds
- binding [3]: binds
- binding [4]: binds
Substance: IκBα (from UniProt P25963 1-317)
